Reference: paper PMC9066768
These are yes or no findings as the source states them, for the method shown. In cells and extracts the contact can be indirect. Some results given as binding are weak or reduced against the parent protein; the word gives no strength. Sequences can lack the tags named with a protein.

Target: T1, Flag-RND1 (Rho family GTPase 1) (human) (UniProt Q92730)
T1 sequence: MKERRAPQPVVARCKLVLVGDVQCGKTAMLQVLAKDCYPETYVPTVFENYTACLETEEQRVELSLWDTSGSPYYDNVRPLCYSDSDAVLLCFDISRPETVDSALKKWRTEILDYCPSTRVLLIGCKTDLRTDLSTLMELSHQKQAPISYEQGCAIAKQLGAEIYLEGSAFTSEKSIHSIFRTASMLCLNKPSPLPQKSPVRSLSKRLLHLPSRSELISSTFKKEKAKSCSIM
Test: co-IP; 293T cells co-transfected with Flag-RND1 and HA-p53 for 48 h; lysed in IP buffer (50 mM Tris-Cl pH 8.0, 0.5 mM EDTA, 150 mM NaCl, 1% NP-40); IP with anti-Flag, anti-HA or IgG and Protein G Agarose overnight at 4 °C; blotted with anti-RND1 and anti-p53

## HA-p53 (from UniProt P04637 1-393)
  binding: binds
